Experimental data reported in article PMC10094283.
No constants are given. Whether binding was seen depends on the method and setting. For part of these data: In cells and extracts the contact can be indirect. Some binding calls cover weakened binding; strength is not graded here.

Protein sequences, listed by entry. Tags and fused reporters are not part of them. Lines headed by an entry give the natural chain unless they say otherwise; changes in a name come on top. Chains listed by the source or under a name are the forms on record and can include a tag or linker. Residues count along the entry.
UniProt Q9Y4A5: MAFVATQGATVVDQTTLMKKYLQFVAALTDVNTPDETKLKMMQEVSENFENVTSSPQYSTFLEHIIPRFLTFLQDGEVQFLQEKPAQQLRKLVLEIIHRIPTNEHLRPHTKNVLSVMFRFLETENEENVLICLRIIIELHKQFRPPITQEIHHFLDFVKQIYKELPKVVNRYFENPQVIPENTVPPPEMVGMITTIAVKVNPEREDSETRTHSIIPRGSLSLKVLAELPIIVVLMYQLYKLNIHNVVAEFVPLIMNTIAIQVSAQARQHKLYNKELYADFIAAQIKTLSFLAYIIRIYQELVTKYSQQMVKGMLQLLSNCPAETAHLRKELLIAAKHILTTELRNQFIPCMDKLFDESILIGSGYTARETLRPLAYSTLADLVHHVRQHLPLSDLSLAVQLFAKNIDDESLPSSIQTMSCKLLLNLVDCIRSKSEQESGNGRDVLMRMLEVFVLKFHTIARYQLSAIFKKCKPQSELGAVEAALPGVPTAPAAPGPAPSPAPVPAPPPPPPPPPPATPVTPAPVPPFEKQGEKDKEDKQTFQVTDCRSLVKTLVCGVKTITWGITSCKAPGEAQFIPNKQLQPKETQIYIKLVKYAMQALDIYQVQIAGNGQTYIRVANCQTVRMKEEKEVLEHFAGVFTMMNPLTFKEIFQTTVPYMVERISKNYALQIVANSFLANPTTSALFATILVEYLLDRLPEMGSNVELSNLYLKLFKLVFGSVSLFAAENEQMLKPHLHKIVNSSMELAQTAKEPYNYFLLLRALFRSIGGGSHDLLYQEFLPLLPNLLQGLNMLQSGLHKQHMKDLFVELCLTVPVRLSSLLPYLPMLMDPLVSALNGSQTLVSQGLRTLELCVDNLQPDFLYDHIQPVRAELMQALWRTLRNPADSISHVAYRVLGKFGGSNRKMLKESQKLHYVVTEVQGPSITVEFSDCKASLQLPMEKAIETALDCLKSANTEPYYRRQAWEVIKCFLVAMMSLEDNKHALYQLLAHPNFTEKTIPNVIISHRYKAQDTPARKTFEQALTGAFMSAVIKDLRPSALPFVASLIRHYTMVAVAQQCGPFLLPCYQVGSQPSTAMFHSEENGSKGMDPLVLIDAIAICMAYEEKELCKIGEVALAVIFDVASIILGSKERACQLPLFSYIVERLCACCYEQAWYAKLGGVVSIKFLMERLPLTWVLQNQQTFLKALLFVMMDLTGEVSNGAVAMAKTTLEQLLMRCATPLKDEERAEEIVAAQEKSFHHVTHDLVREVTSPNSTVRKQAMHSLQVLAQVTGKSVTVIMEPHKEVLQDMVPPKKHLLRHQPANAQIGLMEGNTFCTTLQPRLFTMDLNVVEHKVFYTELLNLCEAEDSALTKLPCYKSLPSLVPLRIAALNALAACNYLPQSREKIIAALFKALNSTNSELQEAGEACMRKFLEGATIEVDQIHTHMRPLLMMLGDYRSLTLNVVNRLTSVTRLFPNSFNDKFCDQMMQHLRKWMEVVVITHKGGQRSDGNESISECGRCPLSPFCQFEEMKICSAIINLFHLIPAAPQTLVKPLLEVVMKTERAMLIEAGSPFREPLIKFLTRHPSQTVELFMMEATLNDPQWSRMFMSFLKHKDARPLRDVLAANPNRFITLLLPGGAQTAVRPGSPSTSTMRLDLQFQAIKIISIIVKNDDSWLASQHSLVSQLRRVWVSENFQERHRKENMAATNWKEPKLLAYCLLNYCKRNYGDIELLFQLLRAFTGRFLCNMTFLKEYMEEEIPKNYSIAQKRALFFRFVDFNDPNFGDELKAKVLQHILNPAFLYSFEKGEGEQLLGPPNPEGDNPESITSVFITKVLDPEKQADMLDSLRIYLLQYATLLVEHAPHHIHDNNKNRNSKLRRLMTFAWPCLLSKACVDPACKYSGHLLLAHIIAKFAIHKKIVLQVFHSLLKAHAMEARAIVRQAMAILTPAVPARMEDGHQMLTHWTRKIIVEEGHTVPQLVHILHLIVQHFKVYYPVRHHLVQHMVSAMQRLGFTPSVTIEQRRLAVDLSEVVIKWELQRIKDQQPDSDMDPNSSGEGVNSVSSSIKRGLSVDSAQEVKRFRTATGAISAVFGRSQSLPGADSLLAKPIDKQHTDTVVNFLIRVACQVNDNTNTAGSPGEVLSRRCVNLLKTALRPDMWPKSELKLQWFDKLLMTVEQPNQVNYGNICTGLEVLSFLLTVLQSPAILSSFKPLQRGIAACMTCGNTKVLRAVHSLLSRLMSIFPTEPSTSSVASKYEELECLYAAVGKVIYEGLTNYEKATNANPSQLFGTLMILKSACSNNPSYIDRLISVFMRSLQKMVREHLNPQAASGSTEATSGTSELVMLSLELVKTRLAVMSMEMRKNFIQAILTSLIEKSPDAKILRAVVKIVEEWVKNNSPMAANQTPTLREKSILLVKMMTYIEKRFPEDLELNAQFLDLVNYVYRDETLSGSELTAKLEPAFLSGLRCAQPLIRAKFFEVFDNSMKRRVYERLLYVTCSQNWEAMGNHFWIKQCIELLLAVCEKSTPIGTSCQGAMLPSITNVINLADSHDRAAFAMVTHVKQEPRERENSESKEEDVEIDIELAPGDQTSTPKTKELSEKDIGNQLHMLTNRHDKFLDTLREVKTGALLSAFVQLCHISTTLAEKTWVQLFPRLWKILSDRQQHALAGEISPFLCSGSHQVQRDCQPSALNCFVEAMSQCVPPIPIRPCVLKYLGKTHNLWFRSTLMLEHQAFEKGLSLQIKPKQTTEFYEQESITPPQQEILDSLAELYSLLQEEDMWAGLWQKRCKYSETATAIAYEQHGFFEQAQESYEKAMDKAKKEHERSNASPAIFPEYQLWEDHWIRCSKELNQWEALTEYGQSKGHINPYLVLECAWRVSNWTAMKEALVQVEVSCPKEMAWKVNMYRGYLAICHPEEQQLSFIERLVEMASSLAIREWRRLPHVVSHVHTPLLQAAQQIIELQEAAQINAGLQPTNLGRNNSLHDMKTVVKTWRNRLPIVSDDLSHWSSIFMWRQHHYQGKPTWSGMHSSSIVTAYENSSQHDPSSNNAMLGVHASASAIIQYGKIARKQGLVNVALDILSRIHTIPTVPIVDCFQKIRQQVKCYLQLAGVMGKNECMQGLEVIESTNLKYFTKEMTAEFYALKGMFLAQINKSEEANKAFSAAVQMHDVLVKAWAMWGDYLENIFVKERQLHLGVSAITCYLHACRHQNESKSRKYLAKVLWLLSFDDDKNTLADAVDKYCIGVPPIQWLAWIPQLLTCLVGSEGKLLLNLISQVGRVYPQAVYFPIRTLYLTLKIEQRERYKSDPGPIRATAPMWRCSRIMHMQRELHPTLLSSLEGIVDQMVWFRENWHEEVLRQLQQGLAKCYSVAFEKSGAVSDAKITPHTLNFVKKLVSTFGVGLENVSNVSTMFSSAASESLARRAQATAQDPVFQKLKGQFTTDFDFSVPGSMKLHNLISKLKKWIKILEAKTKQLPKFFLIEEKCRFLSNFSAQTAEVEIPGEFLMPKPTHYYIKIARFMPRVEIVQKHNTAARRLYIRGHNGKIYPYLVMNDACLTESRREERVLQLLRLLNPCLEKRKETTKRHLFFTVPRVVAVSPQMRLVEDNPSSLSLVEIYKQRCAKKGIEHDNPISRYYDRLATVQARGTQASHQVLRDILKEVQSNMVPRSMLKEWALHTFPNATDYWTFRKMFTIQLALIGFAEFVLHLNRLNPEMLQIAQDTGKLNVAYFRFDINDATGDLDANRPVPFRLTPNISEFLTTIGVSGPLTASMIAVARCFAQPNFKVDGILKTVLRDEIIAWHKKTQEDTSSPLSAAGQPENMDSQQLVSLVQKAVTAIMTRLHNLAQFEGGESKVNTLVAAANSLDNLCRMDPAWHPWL
FLAG-tagged TRRAP domain 2 (TRRAP D2, amino acids 1898-2400): residues 1898-2400 of Q9Y4A5
UniProt Q9H9S0: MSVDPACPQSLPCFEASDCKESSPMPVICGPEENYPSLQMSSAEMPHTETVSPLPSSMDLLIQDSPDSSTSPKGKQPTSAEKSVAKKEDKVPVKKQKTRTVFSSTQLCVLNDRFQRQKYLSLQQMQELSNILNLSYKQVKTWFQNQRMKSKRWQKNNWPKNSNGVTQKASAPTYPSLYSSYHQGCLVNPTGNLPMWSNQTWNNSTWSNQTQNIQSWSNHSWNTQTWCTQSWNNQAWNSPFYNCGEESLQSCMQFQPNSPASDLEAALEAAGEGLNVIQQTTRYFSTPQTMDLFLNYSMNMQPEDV

How the values were obtained:
[1] = molecular target: FLAG-tagged full-length TRRAP (transformation/transcription domain-associated protein) (UniProt Q9Y4A5); assay: pull-down; TAP-NANOG purified with streptavidin agarose and eluted using biotin, then incubated with the immunoprecipitants of FLAG-TRRAP; both purified
[2] = molecular target: FLAG-tagged TRRAP domain 2 (TRRAP D2, amino acids 1898-2400) (UniProt Q9Y4A5); assay: co-IP; HEK293 cells co-transfected with FLAG-TRRAP constructs and TAP-NANOG; 1 mg lysate (25 mM Tris-HCl pH 8.0, 150 mM NaCl, 0.1% NP-40) incubated with anti-FLAG M2 affinity gel 2 h at 4 °C; Western blot
[3] = molecular target: FLAG-tagged full-length TRRAP (transformation/transcription domain-associated protein) (UniProt Q9Y4A5); assay: as above

Measured: binding

TAP-tagged NANOG (from UniProt Q9H9S0 1-305)
binds: [1] | [2] | [3]
